From paper PMC7889895, “Crystal structure of a photosynthetic LH1-RC in complex with its electron donor HiPIP” (Nature Communications, 2021)
No constants are given. Whether binding was seen depends on the method and setting. Some entries that bind do so weakly or less than the wild type.

Molecular target: tetraheme cytochrome subunit of the Thermochromatium tepidum reaction center (Thermochromatium tepidum) (UniProt D2Z0P5)
Assay: crystal structure; co-crystal by micro-batch under oil; HiPIP:LH1-RC mixed 15:1, LH1-RC 0.0694 mM; 30 mM sodium succinate pH 5, 20 mM CaCl2, 3.4% OPC, 30% PEG 1500; 20 °C; 2.9 Å; both purified

- binding: binds weakly
B1: high-potential iron-sulfur protein (HiPIP) of Thermochromatium tepidum (protein, UniProt P80176 1-83)
chain: AAPANAVTADDPTAIALKYNQDATKSERVAAARPGLPPEEQHCANCQFMQANVGEGDWKGCQLFPGKLINVNGWCASWTLKAG
